Reference: article PMC3046128, “Systematic Two-Hybrid and Comparative Proteomic Analyses Reveal Novel Yeast Pre-mRNA Splicing Factors Connected to Prp19” (PLoS ONE, 2011)

Chains of the proteins cited; added tags and fusions are not shown. Lines headed by an entry give the natural chain unless they say otherwise; changes in a name come on top.
UniProt Q9P7H6: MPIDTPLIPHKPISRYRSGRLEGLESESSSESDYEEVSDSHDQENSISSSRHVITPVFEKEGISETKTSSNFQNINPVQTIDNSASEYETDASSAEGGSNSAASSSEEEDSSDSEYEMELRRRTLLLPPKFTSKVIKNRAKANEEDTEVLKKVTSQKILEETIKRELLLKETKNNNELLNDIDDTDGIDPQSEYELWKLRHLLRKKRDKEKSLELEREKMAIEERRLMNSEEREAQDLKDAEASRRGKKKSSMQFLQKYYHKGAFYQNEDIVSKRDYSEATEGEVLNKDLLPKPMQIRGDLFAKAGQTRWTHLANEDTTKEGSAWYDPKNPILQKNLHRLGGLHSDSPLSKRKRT
UniProt Q12046: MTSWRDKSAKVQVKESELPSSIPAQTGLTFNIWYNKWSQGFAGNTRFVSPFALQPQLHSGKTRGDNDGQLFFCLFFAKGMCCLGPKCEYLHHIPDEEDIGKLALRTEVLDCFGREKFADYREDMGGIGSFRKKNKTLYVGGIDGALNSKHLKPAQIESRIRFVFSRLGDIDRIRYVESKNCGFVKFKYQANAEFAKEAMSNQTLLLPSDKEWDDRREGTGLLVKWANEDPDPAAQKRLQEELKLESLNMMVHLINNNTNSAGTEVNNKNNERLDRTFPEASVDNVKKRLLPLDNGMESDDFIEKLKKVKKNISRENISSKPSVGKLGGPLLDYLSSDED
UniProt O14097: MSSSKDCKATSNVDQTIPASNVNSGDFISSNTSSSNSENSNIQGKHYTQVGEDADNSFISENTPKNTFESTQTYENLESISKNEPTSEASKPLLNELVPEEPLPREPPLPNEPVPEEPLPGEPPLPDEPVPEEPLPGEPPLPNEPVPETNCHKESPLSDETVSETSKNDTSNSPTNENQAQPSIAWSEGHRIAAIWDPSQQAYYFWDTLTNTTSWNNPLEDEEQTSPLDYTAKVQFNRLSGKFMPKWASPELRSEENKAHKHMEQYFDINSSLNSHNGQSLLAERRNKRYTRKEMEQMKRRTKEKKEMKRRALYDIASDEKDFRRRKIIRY

Tests used:
[1] = target: T1, ScUrn1-TAP (S. cerevisiae) (UniProt Q06525); assay: affinity purification with mass spectrometry; TAP from S. cerevisiae strains, 2D-LC mass spectrometry, Myrimatch search
T1 sequence: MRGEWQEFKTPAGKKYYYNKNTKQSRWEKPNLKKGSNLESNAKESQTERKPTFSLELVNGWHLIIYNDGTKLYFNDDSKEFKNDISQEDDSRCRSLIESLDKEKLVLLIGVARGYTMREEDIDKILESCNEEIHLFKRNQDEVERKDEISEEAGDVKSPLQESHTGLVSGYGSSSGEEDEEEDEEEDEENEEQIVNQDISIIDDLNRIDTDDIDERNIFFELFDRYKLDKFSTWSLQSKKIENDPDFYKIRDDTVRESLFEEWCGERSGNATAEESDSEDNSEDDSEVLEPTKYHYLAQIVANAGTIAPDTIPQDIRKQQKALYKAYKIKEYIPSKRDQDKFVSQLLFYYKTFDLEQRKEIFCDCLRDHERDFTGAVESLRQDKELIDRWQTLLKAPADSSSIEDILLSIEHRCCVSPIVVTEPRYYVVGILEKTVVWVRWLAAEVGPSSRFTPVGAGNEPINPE

SpDre4-TAP (S. pombe) [2] = target: T2, SpDre4-TAP (S. pombe) (UniProt Q09685); assay: affinity purification with mass spectrometry; TAP from S. pombe strains, 2D-LC-MS/MS, SEQUEST search
T2 sequence: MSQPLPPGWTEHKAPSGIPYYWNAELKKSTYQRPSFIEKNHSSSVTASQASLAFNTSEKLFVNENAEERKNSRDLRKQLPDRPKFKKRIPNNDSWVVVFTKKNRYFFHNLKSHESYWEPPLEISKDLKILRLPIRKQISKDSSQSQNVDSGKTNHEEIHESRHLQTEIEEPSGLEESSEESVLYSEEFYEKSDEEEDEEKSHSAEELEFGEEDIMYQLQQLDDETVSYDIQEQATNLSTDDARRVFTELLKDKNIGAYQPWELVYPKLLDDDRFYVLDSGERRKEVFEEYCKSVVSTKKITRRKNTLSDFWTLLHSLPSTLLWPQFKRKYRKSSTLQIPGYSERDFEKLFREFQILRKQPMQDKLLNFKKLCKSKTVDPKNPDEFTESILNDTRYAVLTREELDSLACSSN

SpDre4-TAP (S. pombe) [3] = target: T2, SpDre4-TAP (S. pombe); assay: as above; remark: listed apart in the source
SpPrp17-TAP (S. pombe) = target: T3, SpPrp17-TAP (S. pombe) (UniProt O43071); assay: as above
T3 sequence: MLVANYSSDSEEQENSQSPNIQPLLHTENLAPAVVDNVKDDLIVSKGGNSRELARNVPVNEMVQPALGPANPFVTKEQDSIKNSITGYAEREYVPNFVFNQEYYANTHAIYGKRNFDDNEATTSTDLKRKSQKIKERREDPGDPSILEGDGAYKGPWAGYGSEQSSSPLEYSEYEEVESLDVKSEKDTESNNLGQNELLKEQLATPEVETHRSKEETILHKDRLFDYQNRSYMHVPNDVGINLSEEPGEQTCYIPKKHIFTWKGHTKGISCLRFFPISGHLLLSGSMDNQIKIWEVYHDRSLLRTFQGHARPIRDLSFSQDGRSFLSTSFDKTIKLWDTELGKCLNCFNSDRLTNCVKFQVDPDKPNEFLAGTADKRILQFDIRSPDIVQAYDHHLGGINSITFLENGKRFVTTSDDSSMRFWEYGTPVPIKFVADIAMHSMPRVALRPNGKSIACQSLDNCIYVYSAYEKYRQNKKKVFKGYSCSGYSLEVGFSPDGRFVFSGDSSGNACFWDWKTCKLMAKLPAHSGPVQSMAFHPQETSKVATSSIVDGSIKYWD

[4] = target: T1, ScUrn1-TAP (S. cerevisiae); assay: affinity purification with mass spectrometry; TAP from S. cerevisiae strains, 2D-LC mass spectrometry, Myrimatch search; remark: listed apart in the source
Aim4-TAP (S. cerevisiae) = target: T4, Aim4-TAP (S. cerevisiae) (UniProt P38305); assay: as above
T4 sequence: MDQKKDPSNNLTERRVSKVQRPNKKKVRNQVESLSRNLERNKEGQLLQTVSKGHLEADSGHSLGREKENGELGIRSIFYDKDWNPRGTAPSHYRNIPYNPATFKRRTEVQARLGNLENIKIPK

[5] = target: SpSaf3, epitope-tagged at the endogenous locus (S. pombe) (UniProt Q9P7H6); assay: affinity purification with mass spectrometry; TAP from S. pombe strains, 2D-LC-MS/MS, SEQUEST search

“S. cerevisiae Cwc2 (endogenous) (from UniProt Q12046 1-339)” was tested, and the binding [1] was “no binding”.

In the case of “S. pombe Saf3 (endogenous) (from UniProt Q9P7H6)”, the binding (SpDre4-TAP (S. pombe) [2]) is reported as “binds”.

In the case of “S. pombe Saf2 (endogenous) (from UniProt O14097)”, the binding (SpDre4-TAP (S. pombe) [2]) is reported as “binds”.

B1: S. pombe Prp19 (endogenous) (protein, UniProt O14011 1-488)
chain: MFCSISGETPKEPVISRVSGNVYEKRLIEQVIRETSKDPVTQQECTLEDLVPVKVPDFVRPRPPSATSLPALLSLFQEEWDSVALEQFELRRNLTETKQELSTALYSLDAALRVISRLTKERDEAREALAKFSDNIGTVSSKTIEVQEVEMGESDDQLKTSLRSTVEKTFQELSSKRKRTKLQPKWATDDAVSQLLQATPSTILENLETESTTSFFPSPENSSFVLCLHKDELLCLDIQSNSTLKIFEGSALACCWLTSSKIAVATADAISIFEFPVSSSGLQSVGEPTSSIPIDEKVNFLQAHPSGEYLLAASNEKCYIFSLKSQVYNITVAQHITSLAVHPDGNLFVAGLENGELRFFETSSGNELTKFGPHSSPVKTLQFGENGYWLVVTTNDDSDIFIWDLRKSELVQKIPLQTKVAAVSLDITSQLLVSSDGETLYVHIYVKSSKSWRCMSQTHVSSISNLVWLNELHQLLFSTSNGAILRLG
In the case of B1, the binding (SpDre4-TAP (S. pombe) [3]) is reported as “binds”.

B2: S. pombe Saf1 (endogenous) (protein, UniProt O74517 1-278)
chain: MLSKRGLNPVQAESRKKKKREQIKVREERAKRHEERLSHRNMSQMERQLSELTQLESSQALNAHDKQLLQNLQRDMAIMKKKNIHGHRVGRVESDKTKEAERQHKPRKPFIPKNPKRSIYYDPIFNPYGVPPPGMPYREKEELSSETDESVIDIPLPSEEYPFEDPKPREKKNKSFKPKHHKKQDINASSAQPKSTTTTEAAANTKDIEEETMIEYSAQPVVRDLRQEAAQFLPAAFQRQKLAKGQKIGQPDRDVSSQVQEDKDEEIDNFYKEIGGYL
B2 was tested, and the binding (SpDre4-TAP (S. pombe) [3]) was “binds” and the binding (SpPrp17-TAP (S. pombe)) was “no binding”.

B3: S. cerevisiae Aim4 (endogenous) (protein, UniProt P38305 1-123)
chain: MDQKKDPSNNLTERRVSKVQRPNKKKVRNQVESLSRNLERNKEGQLLQTVSKGHLEADSGHSLGREKENGELGIRSIFYDKDWNPRGTAPSHYRNIPYNPATFKRRTEVQARLGNLENIKIPK
B3 was tested, and the binding [4] was “binds”.

B4: His6-ScUrn1 (natural protein, S. cerevisiae, UniProt Q06525 1-465, looked up)
chain: MRGEWQEFKTPAGKKYYYNKNTKQSRWEKPNLKKGSNLESNAKESQTERKPTFSLELVNGWHLIIYNDGTKLYFNDDSKEFKNDISQEDDSRCRSLIESLDKEKLVLLIGVARGYTMREEDIDKILESCNEEIHLFKRNQDEVERKDEISEEAGDVKSPLQESHTGLVSGYGSSSGEEDEEEDEEEDEENEEQIVNQDISIIDDLNRIDTDDIDERNIFFELFDRYKLDKFSTWSLQSKKIENDPDFYKIRDDTVRESLFEEWCGERSGNATAEESDSEDNSEDDSEVLEPTKYHYLAQIVANAGTIAPDTIPQDIRKQQKALYKAYKIKEYIPSKRDQDKFVSQLLFYYKTFDLEQRKEIFCDCLRDHERDFTGAVESLRQDKELIDRWQTLLKAPADSSSIEDILLSIEHRCCVSPIVVTEPRYYVVGILEKTVVWVRWLAAEVGPSSRFTPVGAGNEPINPE
notes: Urn1, S. cerevisiae (His6-ScUrn1 mass 55.1 kDa); the printed mass fits the whole protein; also called His6-Urn1; source: E. coli BL21 (pETDuet-1), co-expressed with ScPrp19, purified (Ni-NTA agarose, heparin agarose, gel filtration)
In the case of B4, the binding (Aim4-TAP (S. cerevisiae)) is reported as “binds”.

B5: S. pombe Prp38 (endogenous) (protein, UniProt Q9UUD2 1-210)
chain: MADFLARDYRSQGEAAHEMLPTFLIGKILRERIVDSIYWKEQCFGLNACSLVDRAVRLEYIGGQYGNQRPTEFICLLYKLLQIAPEKEIIQQYLSIPEFKYLRALAAFYVRLTWDDVEVHQTLEPLLRDYRKLRIRTNSEIRLTYLDEVVDDLLNAEVVCDISLPPLRSRLQLEDLDLLEPLSSSSDEEDDDEEQISKLESNEGAVDRNI
With B5 the binding [5] was “binds”.

B6: S. pombe Snu23 (endogenous) (protein, UniProt Q09776 1-174)
chain: MDRYNPPRRNGNSKKNEVVITGGRTQRIDFEKDVNKTTILPPAGASVGRRGRGAGWYCEACNETYKDSLSWLDHLNSTQHLRKTRTVIIEKRATLEEVKERMEYWRRQLLEPEKGSEEYSLKERVERYHQELEAKKLRRKQKKVNKEKNSPRLVGENTELAAIMGISSFGSTNL
With B6 the binding [5] was “binds”.

B7: S. cerevisiae Prp17 (endogenous) (protein, UniProt P40968 1-455)
chain: MGLVDGYDTSSDSDLNFDEGKSVHEKKNGNLHEDTSYEPSSNNIHKRKSHFTKSELKRRRKTRKGDGPWGSWSSSDDETSQASETQKEDQDIFVHALAEDNLDSEQIEVEEVSHFYGKSEKDYQGRGYLYPPNDVDVDLREERISFRCYLPKKVIRNYPGHPEGTTALKFLPKTGHLILSGGNDHTIKIWDFYHDYECLRDFQGHNKPIKALRFTEDCQSFLSSSFDRSVKIWDTETGKVKTRLHLNSTPADVESRPTNPHEFIVGLSNSKILHYDDRVSENQGLVQTYDHHLSSILALKYFPDGSKFISSSEDKTVRIWENQINVPIKQISDTAQHSMPFLNVHPSQNYFCAQSMDNRIYSFSLKPKYKRHPKKIFKGHSSAGYGISLAFSGDGRYICSGDSKSRLFTWDWNTSRLLNNIKIPGNKPITQVDWHPQETSKVICSGAAGKIYVCD
For B7, the binding [4] was “no binding”.

Read-outs that look alike come from different tables or passages of the source. Results are given in words; binding and its absence hold for the method and conditions named. Binding seen in cells or lysates may run through a third protein. Here binding means that the protein was enriched with, or labelled near, the bait; the list need not be complete. For some assays here: No binding means not detected with the bait.
